Assay results as given in PMC8384837.
Positions count from the first letter of the chain named. The list shows a part of the results. For some assays here: At the low end of the ranking, values are background and their order means little.

Experiments:
Conditions in all cases: yeast three-hybrid, YBZ-1, SC-Leu-His + 0.5 mM 3-AT, 4 days
[1] = target: T1, PUM1 PUF domain R5-KDR C1007K + R1008D + Q1011R (Homo sapiens) (UniProt Q14671)
T1 sequence: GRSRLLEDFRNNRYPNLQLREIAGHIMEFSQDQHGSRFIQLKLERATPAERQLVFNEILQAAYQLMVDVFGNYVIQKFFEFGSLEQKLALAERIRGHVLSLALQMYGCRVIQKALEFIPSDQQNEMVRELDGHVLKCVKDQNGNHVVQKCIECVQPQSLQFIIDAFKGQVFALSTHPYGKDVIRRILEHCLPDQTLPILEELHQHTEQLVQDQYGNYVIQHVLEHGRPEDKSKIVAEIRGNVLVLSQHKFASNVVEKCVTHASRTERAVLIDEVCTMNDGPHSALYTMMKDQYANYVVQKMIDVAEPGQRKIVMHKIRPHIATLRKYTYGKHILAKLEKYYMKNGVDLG

[2] = target: T2, PUM1 PUF domain R5-KER C1007K + R1008E + Q1011R (UniProt Q14671)
T2 sequence: T1 sequence with D181E

[3] = target: T3, PUM1 PUF domain R5-KGD C1007K + R1008G + Q1011D (UniProt Q14671)
T3 sequence: T1 sequence with D181G, R184D

[4] = target: T4, PUM1 PUF domain R5-KGG C1007K + R1008G + Q1011G (Homo sapiens) (UniProt Q14671)
T4 sequence: T1 sequence with D181G, R184G

[5] = target: T5, PUM1 PUF domain R5-KGL C1007K + R1008G + Q1011L (Homo sapiens) (UniProt Q14671)
T5 sequence: T1 sequence with D181G, R184L

[6] = target: T6, PUM1 PUF domain R5-KGN C1007K + R1008G + Q1011N (Homo sapiens) (UniProt Q14671)
T6 sequence: T1 sequence with D181G, R184N

[7] = target: T7, PUM1 PUF domain R5-KGR C1007K + R1008G + Q1011R (Homo sapiens) (UniProt Q14671)
T7 sequence: T1 sequence with D181G

[8] = target: T8, PUM1 PUF domain R5-KGS C1007K + R1008G + Q1011S (Homo sapiens) (UniProt Q14671)
T8 sequence: T1 sequence with D181G, R184S

[9] = target: T9, PUM1 PUF domain R5-KGV C1007K + R1008G + Q1011V (Homo sapiens) (UniProt Q14671)
T9 sequence: T1 sequence with D181G, R184V

[10] = target: T10, PUM1 PUF domain R5-KGW C1007K + R1008G + Q1011W (Homo sapiens) (UniProt Q14671)
T10 sequence: T1 sequence with D181G, R184W

[11] = target: T11, PUM1 PUF domain R5-KKL C1007K + R1008K + Q1011L (UniProt Q14671)
T11 sequence: T1 sequence with D181K, R184L

[12] = target: T12, PUM1 PUF domain R5-KLC C1007K + R1008L + Q1011C (UniProt Q14671)
T12 sequence: T1 sequence with D181L, R184C

[13] = target: T13, PUM1 PUF domain R5-KLH C1007K + R1008L + Q1011H (UniProt Q14671)
T13 sequence: T1 sequence with D181L, R184H

[14] = target: T14, PUM1 PUF domain R5-KLI C1007K + R1008L + Q1011I (UniProt Q14671)
T14 sequence: T1 sequence with D181L, R184I

[15] = target: T15, PUM1 PUF domain R5-KLM C1007K + R1008L + Q1011M (Homo sapiens) (UniProt Q14671)
T15 sequence: T1 sequence with D181L, R184M

[16] = target: T16, PUM1 PUF domain R5-KLT C1007K + R1008L + Q1011T (UniProt Q14671)
T16 sequence: T1 sequence with D181L, R184T

[17] = target: T17, PUM1 PUF domain R5-KMV C1007K + R1008M + Q1011V (Homo sapiens) (UniProt Q14671)
T17 sequence: T1 sequence with D181M, R184V

[18] = target: T18, PUM1 PUF domain R5-KNG C1007K + R1008N + Q1011G (Homo sapiens) (UniProt Q14671)
T18 sequence: T1 sequence with D181N, R184G

[19] = target: T19, PUM1 PUF domain R5-KNQ C1007K + R1008N (UniProt Q14671)
T19 sequence: T1 sequence with D181N, R184Q

[20] = target: T20, PUM1 PUF domain R5-KNS C1007K + R1008N + Q1011S (Homo sapiens) (UniProt Q14671)
T20 sequence: T1 sequence with D181N, R184S

GGCUAGAACUAGUGGAUCCCCCGGCGCCCGGCGGCUCGAGCCCGGGUAAGUGUAAAUAGUCUGCAUGCCGCCGGGCGCCAUGCCUGCAGGUCGACUCUAGAAAACAUG
binding signal (log2 enrichment (interaction score)) [1]: -1.62
binding signal (log2 enrichment (interaction score)) [2]: -2.85
binding signal (log2 enrichment (interaction score)) [3]: < -8.03
binding signal (log2 enrichment (interaction score)) [4]: -1.12
binding signal (log2 enrichment (interaction score)) [5]: 0.21
binding signal (log2 enrichment (interaction score)) [6]: 1.02
binding signal (log2 enrichment (interaction score)) [7]: 0.04
binding signal (log2 enrichment (interaction score)) [8]: -0.5
binding signal (log2 enrichment (interaction score)) [9]: -0.7
binding signal (log2 enrichment (interaction score)) [10]: -1
binding signal (log2 enrichment (interaction score)) [11]: < -6.32
binding signal (log2 enrichment (interaction score)) [12]: -3.47
binding signal (log2 enrichment (interaction score)) [13]: < -7.73
binding signal (log2 enrichment (interaction score)) [14]: -2.45
binding signal (log2 enrichment (interaction score)) [15]: 0.48
binding signal (log2 enrichment (interaction score)) [16]: < -7.06
binding signal (log2 enrichment (interaction score)) [17]: -1.23
binding signal (log2 enrichment (interaction score)) [18]: -0.53
binding signal (log2 enrichment (interaction score)) [19]: -2.8
binding signal (log2 enrichment (interaction score)) [20]: 0.52
